Further values from the same series stand in other lists.
Assay: Stability testing for 25HC3S sodium salt for injection, 30 mg/mL after constitution
Format: physicochemical
Protocol: Sterile water for injection, USP (6.14 kg) was added into a 10L stainless steel vessel. […] HPbCD, NF (1851.85 g) was added in small portions over 15 minutes with slow stirring into the beaker. The stirring was increased to 250-350 rpm for an additional minimum 30 minutes to form a clear solution. The solution was filtered through a 0.22 micron filter. Filtered vehicle (7 mL) was filled into 10 mL glass vials, which were sealed with 20 mm stoppers, and crimp sealed. The vehicle vials were sterilized with gamma irradiation at approximately 28-32 kGy.
25HC3S sodium salt was micronized by passing through a Fluid Energy Model 00 Jet-O-Mizer Jet Mill. Micronized drug substance (186 mg) was added into a 10 mL glass vial, sealed with 20 mm stoppers, and crimp sealed. The 25HC3S powder vials were sterilized with gamma irradiation at approximately 28-32 kGy
Sterile vehicle (6.0 mL) comprised of 250 mg/mL HPbCD and 10 mM phosphate buffer was added to a vial of 25HC3S micronized powder. The mixture was shaken for 15 minutes to prepare a solution resulting in a 25HC3S sodium salt concentration of 30 mg/mL (allowing for 3% dilution upon the dissolution of drug).
Stability data for 6 months at 2-8° C. to 40° C./75% RH for 25HC3S for injection, 30 mg/mL after constitution, are listed in Table 5. This lot of 25HC3S powder, and the vehicle used to constitute it, were gamma sterilized at approximately 28-32 kGy. The data supports a 12 month retest date when stored at 2-8° C.

C[C@H](CCCC(C)(C)O)[C@H]1CC[C@H]2[C@@H]3CC=C4C[C@@H](OS(=O)(=O)[O-])CC[C@]4(C)[C@H]3CC[C@]12C.[Na+] [25HC3S, 5-cholesten-3, 25-diol, 3-sulfate]
pH (25°C/60% RH, 3 months): 4.83
pH (25°C/60% RH, 6 months): 4.73
pH (40°C/75% RH, 1 month): 4.65
pH (40°C/75% RH, 3 months): 4.27
pH (40°C/75% RH, 6 months): 4.15

Reference: patent publication US20230047788A1, “COMPOSITIONS COMPRISING 5-CHOLESTEN-3, 25-DIOL, 3-SULFATE (25HC3S) OR PHARMACEUTICALLY ACCEPTABLE SALT THEREOF AND AT LEAST ONE CYCLIC OLIGOSACCHARIDE” (Virginia Commonwealth University, priority 2016, published 2023)
